# Results deposited as PubChem BioAssay AID504793 (Drosophila RNAi Screening Center, 2011)
# Aim: 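Whole-genome screen for parts of the DNA damage checkpoint at G2/M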 (primary screen)
# Cells: Drosophila S2R+ cells
# Knock-down reagent: long dsRNA against Drosophila genes, about 0.25 µg dsRNA per well
# Duration: 4 days of dsRNA, then 4 hours of drug before read-out
# Conditions: doxorubicin 0.5 µM for 4 hours to cause double-strand breaks, in cells also given a low, harmless dose of dsRNA against nbs to sensitise the assay
# Detection: 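Mitotic index as the number of phospho-histone H3-positive cells in each well following doxorubicin, given as raw counts without normalisation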
# Scale: mitotic cells: higher = more cells in mitosis, weaker G2 arrest
# Call rule: 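a call needs confirmation in secondary tests, with other dsRNAs and a check of mitotic timing without damage, not just a high primary count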
# Calls: active = confirmed in follow-up tests; inactive = not confirmed
# In all, the deposit lists about 23,000 reagents; this is an unselected part of those that have a named target and a result. Of all reagents, 62 (0.27%) got an active call. 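Calls come from follow-up tests whose scores are not deposited, so confirmed genes may have low counts here; counts are not normalised per plate.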 Raw values vary from plate to plate and are shown uncorrected.
gene knocked down,PubChem SID,"mitotic cells, replicate 1",Call
for,SID104179987,10,inactive
for,SID104180610,11,inactive
for,SID104203649,4,inactive
for,SID104214180,10,inactive
CG13733,SID104189853,6,inactive
geko,SID104189836,5,inactive
geko,SID104189837,9,inactive
CG1503,SID104200304,4,inactive
Desi,SID104194701,3,inactive
CG4646,SID104186668,6,inactive
ppk8,SID104197061,16,inactive
Efhc1.1,SID104199927,15,inactive
CG13793,SID104182089,8,inactive
CG13793,SID104206796,6,inactive
CG31465,SID104195882,4,inactive
CG31465,SID104204897,6,inactive
CG14410,SID104199388,10,inactive
CG3955,SID104186651,5,inactive
mmy,SID104181794,10,inactive
Upf2,SID104198010,9,inactive
Upf2,SID104206329,5,inactive
Lectin-galC1,SID104183154,5,inactive
CG30486,SID104186472,9,inactive
Spn85F,SID104194337,6,inactive
Pdcd4,SID104199152,11,inactive
CG30395,SID104183688,7,inactive
CG13031,SID104189703,5,inactive
CG9616,SID104196310,10,inactive
CG9616,SID104206449,7,inactive
sog,SID104200171,12,inactive
CG15093,SID104186314,7,inactive
CG15093,SID104203271,4,inactive
Mgat3,SID104181097,6,inactive
Mgat3,SID104207942,2,inactive
CG5543,SID104184303,6,inactive
CG15450,SID104200314,7,inactive
Mtap,SID104186682,2,inactive
Atpalpha,SID104193911,14,inactive
Atpalpha,SID104216709,5,inactive
CG14034,SID104182151,7,inactive
CG15395,SID104180201,6,inactive
CG3777,SID104198281,10,inactive
CG3777,SID104203326,12,inactive
RagA-B,SID104194242,8,inactive
CG43861,SID104182100,8,inactive
CG33494,SID104193507,7,inactive
CG11362,SID104183898,1,inactive
CG11362,SID104201616,11,inactive
CG11362,SID104205680,6,inactive
CG6310,SID104190411,4,inactive
Acp62F,SID104187928,7,inactive
CG4704,SID104195420,9,inactive
r-cup,SID104200267,1,inactive
Scp1,SID104200591,13,inactive
Scp1,SID104200595,49,inactive
Scp1,SID104200598,2,inactive
CG15464 (retired record),SID104197839,13,inactive
CG15464 (retired record),SID104201657,7,inactive
CG10005,SID104193964,6,inactive
St2,SID104194934,9,inactive
St2,SID104202035,9,inactive
Tfb4,SID104180467,7,inactive
Tfb4,SID104205490,2,inactive
Sse,SID104189538,15,inactive
wls,SID104190397,6,inactive
wls,SID104207857,7,inactive
CG1722,SID104200339,1,inactive
CG31534 (retired record),SID104191933,1,inactive
CG31534 (retired record),SID104192081,5,inactive
CG31534 (retired record),SID104206347,3,inactive
CG15914,SID104199531,4,inactive
CG32579,SID104199664,8,inactive
tefu,SID104195852,8,inactive
Noc2,SID104182957,9,inactive
CG31643,SID104180698,2,inactive

Taken from above:
For “Call”, CG15450 [SID104200314] shows inactive
Under “Call”, wls [SID104207857] shows inactive
for [SID104180610], Call: inactive
Upf2 [SID104198010], mitotic cells, replicate 1 → 9
Value of geko [SID104189837] under “mitotic cells, replicate 1”: 9
Value of CG4646 [SID104186668] in “mitotic cells, replicate 1”: 6
